From patent publication US20220183997A1, “USE OF C[…] COMBINATION WITH ANTIBIOTICS” (GW Pharma Limited, priority 2019, published 2022)
At least one structure is not confirmed: it was looked up by name or label, or the drawing left a doubt.

System: S. aureus
Assay: Disc diffusion test, antibiotic discs with CBD disc
Assay type: cell-based
Settings: antibiotic disc + 5 μM CBD disc vs antibiotic alone, 24 h
Experimental: Discs were impregnated with the following […]: Colistin (10 μg/ml), Rifampicin (15 μg/ml), Erythromycin (15 μg/ml), Kanamycin (30 μg/ml) and Vancomycin (5 μg/ml).
Concentration of the antibiotics used was based on previously published and established MIC values (Moskowitz et al., 2010; Rojas et al., 2017; Goldstein et al., 2018; Maclayton et al., 2006, Kshetry et al., 2016).
E. coli and S. aureus agar plates were prepared for the disc diffusion test by soaking a sterile paper disc in 5 μM CBD and placing it in the middle of the agar plate, while the impregnated antibiotic discs were placed equidistant to the CBD disc. Zone of inhibition was assessed after 24 h.

## CO[C@H]1/C=C/O[C@@]2(C)Oc3c(C)c(O)c4c(O)c(c(/C=N/N5CCN(C)CC5)c(O)c4c3C2=O)NC(=O)/C(C)=C\C=C\[C@H](C)[C@H](O)[C@@H](C)[C@@H](O)[C@@H](C)[C@H](OC(C)=O)[C@@H]1C [Rifampicin]
  effect of CBD on antibacterial activity of antibiotic (in words): reduced antibacterial effects
